From publication PMC6305308
Results are given in words; binding and its absence hold for the method and conditions named.

Target: T1, CtsR of Oenococcus oeni (Oenococcus oeni ATCC BAA-1163) (UniProt Q4A3D8)
T1 sequence: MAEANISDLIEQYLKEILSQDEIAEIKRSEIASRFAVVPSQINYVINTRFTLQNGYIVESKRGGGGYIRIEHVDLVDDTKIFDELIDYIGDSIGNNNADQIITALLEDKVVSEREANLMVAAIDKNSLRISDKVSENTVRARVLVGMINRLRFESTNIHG
Assay: two-hybrid; BACTH (bacterial adenylate cyclase two-hybrid) in E. coli DHT1 cya-; T25 and T18 hybrids co-expressed in all combinations; grown at 28°C with 0.5 mM IPTG; β-galactosidase activity of permeabilised cells in relative units; mean of six independent clones; negative control (non-fused T25 and T18) about 20 units

Which binding does the source give for “ClpL2 of Oenococcus oeni (from UniProt Q4A3X2 1-711)” here?
The binding was “no binding”.
